Laboratory results as given in patent US11154569B2, “Ruthenium μ-nitrido complexes and their use as calcium uptake inhibitors” (CORNELL UNIVERSITY, priority 2018, dated 2021).
Some entries share one result that the patent states for a list of compounds. Some compounds share one range, which may span the group rather than tell each member.

Test system: HeLa cells
Assay: Mitochondrial accumulation of ruthenium in HeLa cells (mitochondrial isolation, GFAAS)
Conditions: 50 μM, 24 hours

Row | Substance | uptake of ruthenium into the mitochondria compared to the rest of the cell
1 | [Ru2(μ-N)(en)4Cl2]Cl3 [C-3] | 2-4 times
2 | [Ru2(μ-O)(NH3)8(H2O)2]^+5 [C-1, reference compound] | 2-4 times
